Earlier results, collected in patent US20030100493A1, “Sublingual use of inhibitors in the biosynthesis of cholesterol” (priority 2001, published 2003).

Conditions: in vivo

CC(C)c1c(C(=O)Nc2ccccc2)c(-c2ccccc2)c(-c2ccc(F)cc2)n1CC[C@@H](O)C[C@@H](O)CC(=O)O [Atorvastatin]
passage of the blood brain barrier: do not pass the blood brain barrier
